For 42 sequences, binding signal results are on record in publication PMC7819943, “Rice protein-binding microarrays: a tool to detect cis-acting elements near promoter regions in rice”.

Sequences of proteins named here, by UniProt entry; tags and fusion partners are left off.
UniProt Q0JBA9, entry or part of it: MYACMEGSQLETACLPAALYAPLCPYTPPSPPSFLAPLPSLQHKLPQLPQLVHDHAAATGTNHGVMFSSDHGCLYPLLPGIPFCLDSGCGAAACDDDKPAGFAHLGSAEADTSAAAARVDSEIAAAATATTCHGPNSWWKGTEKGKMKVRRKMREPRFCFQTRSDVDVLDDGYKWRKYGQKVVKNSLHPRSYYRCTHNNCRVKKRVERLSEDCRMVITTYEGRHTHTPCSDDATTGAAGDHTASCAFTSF

Some of the results follow.

This experiment deals with OsWRKY34 (Oryza sativa, UniProt Q0JBA9 1-250). As to the kind of experiment: protein-binding microarray (RPBM); PBS, 2% BSA, 51.3 ng/ul salmon testes DNA, 50 uM zinc acetate, 200 nM TF, 25 C, 1 h; high values mean tight binding. The settings on record: protein: recombinant; tags: N-terminal polyhistidine and DsRed monomer fusion (pET32a); label: CyDye5-dUTP incorporated in the synthesized complementary strand; 3' TTTTT single-stranded linker to array surface; dsDNA, one strand shown. The gist of the method:
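Ni–NTA purification followed expression in E. coli BL21-CodonPlus of transcription factors fused N-terminally to a polyhistidine tag and DsRed. At 200 nM in PBS with 2% BSA, salmon testes DNA and 50 µM zinc acetate, the protein was incubated for 1 h at 25 °C with a custom Agilent array that had been primer-extended with Cy5-dUTP and blocked with 2% BSA. After washing, the array was read on an Axon 4000B scanner. The binding signal is per-feature fluorescence intensity in arbitrary units.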
As for “TTTTTTGCTCCCGCAATTTTTTTCTGTTTTCTTTTTTTTGCGGAGTCACCTAGTGCAG”, the binding signal is 10100 fluorescence intensity (a.u.). For “ACTCCACTTAGGCTGCATTCGTTCTAGATACATTGAGTTACGGAGTCACCTAGTGCAG”, the binding signal is 9970 fluorescence intensity (a.u.).

Turning to “GGGCCCACCTTGAAAGATCACGTGTCACCCGCGCCATCTACGGAGTCACCTAGTGCAG”, the binding signal was 9400 fluorescence intensity (a.u.). With “CTTTTCCTGTTATATTTTTCCTTACTGTTACTACGGTATCCGGAGTCACCTAGTGCAG”, the binding signal is 9930 fluorescence intensity (a.u.). Turning to “CTGTTCATCTATTTAATTAAGGATGCAATCTACCTGTCCACGGAGTCACCTAGTGCAG”, the binding signal was 8080 fluorescence intensity (a.u.).

As to “TCAGGTTATAAGACTTTCTAGCATTGCCCGCATTCATATACGGAGTCACCTAGTGCAG”, the binding signal is 8040 fluorescence intensity (a.u.). With “CGCTTTTTAAACTACTACACGGTGTATTTTTTTGCAAAAACGGAGTCACCTAGTGCAG”, the binding signal was 8620 fluorescence intensity (a.u.). On to “AGATTATGCCAGCCCAATATCACATCGTAGCCCAATACAACGGAGTCACCTAGTGCAG”, for which the binding signal is 8280 fluorescence intensity (a.u.). “TGCTCCATGACAAGTACGGCGAGTTTATTTAATTTTCTCACGGAGTCACCTAGTGCAG”: the binding signal was 8080 fluorescence intensity (a.u.).

As for “CGACGCCACCGCCTGTATGTCCACATGCTCCACCGTCGCCCGGAGTCACCTAGTGCAG”, the binding signal was 10100 fluorescence intensity (a.u.). As for “ATTTCAATCTAGCTGACATCATCACTTCATCTTATTTGACCGGAGTCACCTAGTGCAG”, the binding signal is 8880 fluorescence intensity (a.u.). To “AGTATCCCGCATGATATCTGACCACCACGGACATCGTCTTCGGAGTCACCTAGTGCAG” belongs 12800 fluorescence intensity (a.u.). The result for “AATAGTCGTACGTTGTCGTCAATTCGCCCATGGTTTTGATCGGAGTCACCTAGTGCAG” reads 8460 fluorescence intensity (a.u.); that for “ATCTCGAGTTCCTTTTTTTTTCTCTCCTGAAGGAGTAGAACGGAGTCACCTAGTGCAG”, 8060 fluorescence intensity (a.u.); that for “TATACTTCCTGCATCCCTAAATGTTTGACGCTGTTGACTTCGGAGTCACCTAGTGCAG”, 10900 fluorescence intensity (a.u.).

Regarding “AAATGCTTCCATGCCTTCGTTTGATCGCTGCAATGACCCTCGGAGTCACCTAGTGCAG”, the binding signal was 8520 fluorescence intensity (a.u.).

As to “TCTTTCCTCATTTATTTACTTGTTACATCAATTTTCATCGCGGAGTCACCTAGTGCAG”, the binding signal was 10100 fluorescence intensity (a.u.).

For “GGCGTGGTGCTATGTTTGGTGATCATTTTGCCAGTCTGTCCGGAGTCACCTAGTGCAG”, the binding signal was 9180 fluorescence intensity (a.u.).

Take “CCTCCGTCGACCCACCCGTGCCGTTCTCTTCGCCGTCATGCGGAGTCACCTAGTGCAG”: the binding signal is 10000 fluorescence intensity (a.u.).

With “CCCTCATCCAGCCATTGTTACTGTGCCCGCGCTCCCGCGCCGGAGTCACCTAGTGCAG”, the binding signal was 10200 fluorescence intensity (a.u.). As for “GAGCCCTACGTCGCCGCCCACAACGTGATACTCTCCCACGCGGAGTCACCTAGTGCAG”, the binding signal was 9940 fluorescence intensity (a.u.). On to “CATTTGCGCATTTCCTCTTCTATTACCCGCATTGTTCAACCGGAGTCACCTAGTGCAG”, for which the binding signal was 13100 fluorescence intensity (a.u.). To “CGTATATCCGATGTGACACGCCAAAACTTTACACCCATGTCGGAGTCACCTAGTGCAG” belongs 8030 fluorescence intensity (a.u.); to “TCCGCCAGAAAACTACGTGACGAATTTATTAATCCTATTTCGGAGTCACCTAGTGCAG”, 8570 fluorescence intensity (a.u.); to “TTTGGGATAAATCATGAGGGGTTAAAAGTTGTTATATTTTCGGAGTCACCTAGTGCAG”, 10100 fluorescence intensity (a.u.). Turning to “TAGTTAGTCATAAGGTGGTTCAGTTTGGGAGGGCTGATACCGGAGTCACCTAGTGCAG”, the binding signal is 8040 fluorescence intensity (a.u.). The result for “CTATAACATCGCATGACACTATTTGCTTTATTTATTTATTCGGAGTCACCTAGTGCAG” reads 9020 fluorescence intensity (a.u.); that for “CTGAGGTCCCTTAACTTATCTACGAATCCGATTTTCGTCCCGGAGTCACCTAGTGCAG”, 9300 fluorescence intensity (a.u.). With “GTTATTCAAAACTATAGTTATCTTCCGCCTATTTTTTTATCGGAGTCACCTAGTGCAG”, the binding signal is 10600 fluorescence intensity (a.u.). Turning to “TTCCGTTCTTGAATATTGATCTTTCGTTTTTCTTTCCTAGCGGAGTCACCTAGTGCAG”, the binding signal was 8770 fluorescence intensity (a.u.). As to “GGACCTGTAAATTGCACATTTGTACATCCAACTGAGCACACGGAGTCACCTAGTGCAG”, the binding signal was 8270 fluorescence intensity (a.u.). For the sequence “CTCTATGCAGAATGTTTGTGTCCTTTCACCCATCTCTTTGCGGAGTCACCTAGTGCAG”, the binding signal was 8740 fluorescence intensity (a.u.).

Regarding “GTCCAATCCCTTACCGTTGATTGGCCACGTGGCTAAAACTCGGAGTCACCTAGTGCAG”, the binding signal was 10700 fluorescence intensity (a.u.).

For the sequence “CTTACCGTGCAAATTGAATTTTGTTACTGTTTGGTACTTCCGGAGTCACCTAGTGCAG”, the binding signal was 9000 fluorescence intensity (a.u.). On to “GGGGCTCGCTCTATTTTCTTCTGTATGAATTATGCTTGTCCGGAGTCACCTAGTGCAG”, for which the binding signal was 9340 fluorescence intensity (a.u.).

In the case of “GGTAATTCGGTTCTGTTTTATTAACGTGTGTGTACTGATTCGGAGTCACCTAGTGCAG”, the binding signal is 15400 fluorescence intensity (a.u.). Turning to “CTCCCATCGCCTCCGCCGACGTCGACCGCCTCCTTTGCTGCGGAGTCACCTAGTGCAG”, the binding signal was 8900 fluorescence intensity (a.u.). The result for “CTCTTTTCTATGTCTTTGTTAGCCGTTGCTTGGTCCACGACGGAGTCACCTAGTGCAG” reads 12500 fluorescence intensity (a.u.); that for “GCAGGCTCACTCACCTCGCTTCCTGTCCGACATCGCGCCGCGGAGTCACCTAGTGCAG”, 9220 fluorescence intensity (a.u.).

In the case of “ACTCCTCTCCAGTCTCCCCGCCGCTCCGCATCCCGCAGCCCGGAGTCACCTAGTGCAG”, the binding signal is 8400 fluorescence intensity (a.u.).

Regarding “CTCGCTCTCTCACCCGACCCAACTCATCAGTCGTCGCTTTCGGAGTCACCTAGTGCAG”, the binding signal was 11100 fluorescence intensity (a.u.). Consider “CTACGTGAGCTCGTTGCTGTGTCTCCTCTCTCTGCATCGCCGGAGTCACCTAGTGCAG”, for which the binding signal was 9690 fluorescence intensity (a.u.).
